Earlier results on one compound are cited in patent US5703069A, “Method for inhibiting and controlling viral growth” (Warner-Lambert Company, priority 1996, dated 1997).

The data set deals with TPA-mediated CD4 down regulation and HIV expression. As to conditions: HIV-infected cells; Hamamoto et al. 1989; cited from earlier work.

Molecules are shown by their SMILES.

As to `CN[C@@H]1C[C@H]2O[C@@](C)([C@@H]1OC)n1c3ccccc3c3c4c(c5c6ccccc6n2c5c31)C(=O)NC4` [Staurosporine], the “inhibition of TPA-mediated CD4 down regulation and augmentation of HIV expression (in words)” value is reported as “effective TPA inhibitor for both of these actions”.
